Publication PMC3677937
These are yes or no findings as the source states them, for the method shown. In cells and extracts the contact can be indirect. Some results given as binding are weak or reduced against the parent protein; the word gives no strength. Where a sequence is shown, tags or fusion partners need not be part of it.

Protein sequences, listed by entry. Tags and fused reporters are not part of them.
UniProt Q13258: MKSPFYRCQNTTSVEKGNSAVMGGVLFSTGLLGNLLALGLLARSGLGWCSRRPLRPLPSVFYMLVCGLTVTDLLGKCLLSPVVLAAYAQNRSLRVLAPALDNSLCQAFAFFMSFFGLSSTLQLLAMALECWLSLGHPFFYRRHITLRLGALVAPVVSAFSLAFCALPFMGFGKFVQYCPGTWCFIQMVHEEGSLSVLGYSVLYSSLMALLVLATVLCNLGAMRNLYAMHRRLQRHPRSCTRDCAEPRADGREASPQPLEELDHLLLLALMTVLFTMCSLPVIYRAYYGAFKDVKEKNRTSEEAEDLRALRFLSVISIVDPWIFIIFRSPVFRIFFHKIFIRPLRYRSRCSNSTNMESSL

Molecular target: Flag-tagged prostanoid DP1 receptor (D-type prostanoid receptor) (UniProt Q13258)
Experiment: co-IP; HEK293 cells transiently co-expressing Flag-DP1 and ANKRD13C-myc, treated with vehicle (ethanol) or 1 µM MK-0524 for 24 h; Flag-DP1 immunoprecipitated from lysate (150 mM NaCl, 50 mM Tris pH 8.0, 0.5% deoxycholate, 0.1% SDS, 1% IGEPAL) with protein G-agarose; blots with anti-Flag and …

binding: binds
B1: ANKRD13C-myc (protein, UniProt Q8N6S4 1-541)
chain: MTGEKIRSLRRDHKPSKEEGDLLEPGDEEAAAALGGTFTRSRIGKGGKACHKIFSNHHHRLQLKAAPASSNPPGAPALPLHNSSVTANSQSPALLAGTNPVAVVADGGSCPAHYPVHECVFKGDVRRLSSLIRTHNIGQKDNHGNTPLHLAVMLGNKECAHLLLAHNAPVKVKNAQGWSPLAEAISYGDRQMITALLRKLKQQSRESVEEKRPRLLKALKELGDFYLELHWDFQSWVPLLSRILPSDACKIYKQGINIRLDTTLIDFTDMKCQRGDLSFIFNGDAAPSESFVVLDNEQKVYQRIHHEESEMETEEEVDILMSSDIYSATLSTKSISFTRAQTGWLFREDKTERVGNFLADFYLVNGLVLESRKRREHLSEEDILRNKAIMESLSKGGNIMEQNFEPIRRQSLTPPPQNTITWEEYISAENGKAPHLGRELVCKESKKTFKATIAMSQEFPLGIELLLNVLEVVAPFKHFNKLREFVQMKLPPGFPVKLDIPVFPTITATVTFQEFRYDEFDGSIFTIPDDYKEDPSRFPDL
